PubChem BioAssay AID1259308 – NCATS, 2017

Screen: 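Candidate targets for better recombinant protein yield in mammalian cells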 (primary screen)
Cell system: human HEK293 embryonic kidney cells stably expressing firefly luciferase (HEK-CMV-Luc2-Hygro)
Reagent: single siRNA against human genes, 0.8 pmol siRNA per well
Time to read-out: 72 h
Measurement: 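Luciferase light (ONE-Glo) measured on one replicate plate set and viability (CellTiter-Glo) on the other, scaled to a negative control siRNA, with robust z-scores and luciferase per cell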
Reading the numbers: total luciferase, z-score: higher = more reporter protein produced
Active means: 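Active when the median/MAD z-score for overall luciferase is greater than 3; a gene was taken forward for validation with new siRNAs if at least two of its three siRNAs passed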
Meaning of the calls: active = raised luciferase; inactive = no rise
In all, the deposit lists about 59,000 reagents; shown is a part drawn at random. Of all reagents, about 1,510 (2.6%) were called active. 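Calls use total luciferase alone and ignore viability, so some active siRNAs may act by altering cell number.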 Entries without a mark were called inactive. Reagents against one gene are numbered here. Not all columns of the deposit are shown.

LRTOMT #1
- total luciferase, z-score: 0.822

LRTOMT #2
- total luciferase, z-score: 1.61

LRTOMT #3
- total luciferase, z-score: -0.229

SV2B #1
- total luciferase, z-score: -0.397

SV2B #2
- total luciferase, z-score: -1.46

SV2B #3
- total luciferase, z-score: 0.404

FBXO46 #1
- total luciferase, z-score: -2.02

FBXO46 #2
- total luciferase, z-score: 1.21

FBXO46 #3
- total luciferase, z-score: -0.53

MAP3K10 #1
- total luciferase, z-score: -2.35

MAP3K10 #2
- total luciferase, z-score: 0.723

MAP3K10 #3
- total luciferase, z-score: -1.32

Reformatted: 2 of the entries above.
{"gene knocked down": "SV2B", "siRNA no.": 3, "total luciferase, z-score": 0.404}
{"gene knocked down": "FBXO46", "siRNA no.": 1, "total luciferase, z-score": -2.02}

The results go on:
NTMT1 #1
- total luciferase, z-score: 1.18

NTMT1 #2
- total luciferase, z-score: 0.174

NTMT1 #3
- total luciferase, z-score: -1.04

GREB1 #1
- total luciferase, z-score: 0.663

GREB1 #2
- total luciferase, z-score: -0.231

GREB1 #3
- total luciferase, z-score: 0.0669

MRGPRE #1
- total luciferase, z-score: 2.11

MRGPRE #2
- total luciferase, z-score: -1.97

MRGPRE #3
- total luciferase, z-score: 1.8

CFAP298 #1
- total luciferase, z-score: 0.695

CFAP298 #2
- total luciferase, z-score: 1.74

CFAP298 #3
- total luciferase, z-score: -1.29

LINC01913 #1
- total luciferase, z-score: 0.572

LINC01913 #2
- total luciferase, z-score: -0.353

LINC01913 #3
- total luciferase, z-score: 0.866

ZNF345 #1
- total luciferase, z-score: -1.5

ZNF345 #2
- total luciferase, z-score: -0.524

ZNF345 #3
- total luciferase, z-score: 0.0279

PIGV #1
- total luciferase, z-score: 0.175

PIGV #2
- total luciferase, z-score: 0.053

PIGV #3
- total luciferase, z-score: 2.58
